{"source": "patent US20210052719A1", "about": "“A UNIVERSAL VACCINE AGAINST INFLUENZA” (Development Center for Biotechnology, priority 2017, published 2021)", "tested_on": "influenza viruses", "set-up": "species or system influenza virus", "note": "Some results were stated once for a whole list of compounds, not compound by compound. No end group written: not given here."}
{"sequence": "GLLGAIAGPIEF [JJ-1]", "values": [{"measurement": "effectiveness in inhibiting hemagglutination relative to background of pre-immunization", "value": "at least 4 times"}]}
